PubChem BioAssay AID1224828, NIAID – 2016
Here is an unselected part of about 17,000 reagents tested. 762 of all reagents (4.5%) were called active. 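Active calls include both raised and lowered p65 entry, mostly lowered; wells with fewer than 50 cells lack a z-score.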 The raw values are shown without normalisation.

Purpose: 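Regulators linking TLR4 signalling to p65 nuclear translocation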 (primary screen)
Cells: mouse RAW264.7 G9 macrophage reporter cells (GFP-p65, Tnf promoter-mCherry)
Knock-down reagent: siRNA pool against mouse genes, 100 nM
Timing: 2 days siRNA transfection, then 40 min LPS before fixation
Conditions: LPS (Salmonella minnesota R595) at 10 ng/ml
Detection: 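Imaged p65 nuclear translocation ratio, normalised to the plate median, converted to robust z-scores and averaged across two replicates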
Scale: p65 translocation robust z-score: higher = more nuclear NF-kappaB p65 after LPS than the plate median; nuclear/cytoplasmic p65 ratio: higher = more nuclear NF-kappaB p65
Hit rule: 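Called active when z exceeds 3.3 or falls under -1.56 (median of Tlr4 controls), giving activity score of at least 50; no calls for control wells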
Meaning of the calls: active = hit (p65 shift raised or lowered); inactive = no clear change

Agl (amylo-1,6-glucosidase, 4-alpha-glucanotransferase) gave p65 translocation robust z-score 0.36; nuclear/cytoplasmic p65 ratio, rep 1 = 1.68; nuclear/cytoplasmic p65 ratio, rep 2 = 1.66; low cell count flag enough cells to score; inactive.
Depletion of Tcea2 (transcription elongation factor A (SII), 2) came out at: p65 translocation robust z-score -1.08; nuclear/cytoplasmic p65 ratio, rep 1 = 1.33; nuclear/cytoplasmic p65 ratio, rep 2 = 1.4; low cell count flag enough cells to score; inactive.
With knock-down of Ago2 (argonaute RISC catalytic subunit 2), the record shows p65 translocation robust z-score -0.55; nuclear/cytoplasmic p65 ratio, rep 1 = 1.34; nuclear/cytoplasmic p65 ratio, rep 2 = 1.34; low cell count flag enough cells to score; inactive.
Cd93 (CD93 antigen) scored p65 translocation robust z-score -0.44; nuclear/cytoplasmic p65 ratio, rep 1 = 1.53; nuclear/cytoplasmic p65 ratio, rep 2 = 1.56; low cell count flag enough cells to score; inactive.
After knock-down of Fgr (FGR proto-oncogene, Src family tyrosine kinase), the screen gave p65 translocation robust z-score 0.89; nuclear/cytoplasmic p65 ratio, rep 1 = 1.83; nuclear/cytoplasmic p65 ratio, rep 2 = 1.39; low cell count flag enough cells to score; inactive.
Rps20 (ribosomal protein S20) showed p65 translocation robust z-score -1.41; nuclear/cytoplasmic p65 ratio, rep 1 = 1.19; nuclear/cytoplasmic p65 ratio, rep 2 = 1.1; low cell count flag enough cells to score; inactive.
Knock-down of Cep135 (centrosomal protein 135) gave: p65 translocation robust z-score -0.22; nuclear/cytoplasmic p65 ratio, rep 1 = 1.45; nuclear/cytoplasmic p65 ratio, rep 2 = 1.44; low cell count flag enough cells to score; inactive.
Against Or2ag13 (olfactory receptor family 2 subfamily AG member 13) the deposit lists p65 translocation robust z-score -0.17; nuclear/cytoplasmic p65 ratio, rep 1 = 1.3; nuclear/cytoplasmic p65 ratio, rep 2 = 1.25; low cell count flag enough cells to score; inactive.

Quoted from above, 2 entries:
Cd93 (CD93 antigen) → p65 translocation robust z-score: -0.44; nuclear/cytoplasmic p65 ratio, rep 1: 1.53; nuclear/cytoplasmic p65 ratio, rep 2: 1.56; low cell count flag: enough cells to score; activity call: inactive
Fgr (FGR proto-oncogene, Src family tyrosine kinase) → p65 translocation robust z-score: 0.89; nuclear/cytoplasmic p65 ratio, rep 1: 1.83; nuclear/cytoplasmic p65 ratio, rep 2: 1.39; low cell count flag: enough cells to score; activity call: inactive

Further reagents:
After knock-down of Eif2b5, the record shows p65 translocation robust z-score 0.28; nuclear/cytoplasmic p65 ratio, rep 1 = 1.53; nuclear/cytoplasmic p65 ratio, rep 2 = 1.38; low cell count flag enough cells to score; inactive.
After knock-down of Or4e1 (olfactory receptor family 4 subfamily E member 1), the screen gave p65 translocation robust z-score -0.71; nuclear/cytoplasmic p65 ratio, rep 1 = 1.5; nuclear/cytoplasmic p65 ratio, rep 2 = 1.38; low cell count flag enough cells to score; inactive.
For Htatip2 (HIV-1 Tat interactive protein 2), the entry reads p65 translocation robust z-score -0.47; nuclear/cytoplasmic p65 ratio, rep 1 = 1.37; nuclear/cytoplasmic p65 ratio, rep 2 = 1.31; low cell count flag enough cells to score; inactive.
With knock-down of Cfb (complement factor B), the screen gave p65 translocation robust z-score -0.51; nuclear/cytoplasmic p65 ratio, rep 1 = 1.1; nuclear/cytoplasmic p65 ratio, rep 2 = 1.33; low cell count flag enough cells to score; inactive.
Depletion of C130070B15Rik (RIKEN cDNA C130070B15 gene) gave: p65 translocation robust z-score 0.69; nuclear/cytoplasmic p65 ratio, rep 1 = 1.52; nuclear/cytoplasmic p65 ratio, rep 2 = 1.38; low cell count flag enough cells to score; inactive.
Against Trim60 (tripartite motif-containing 60) the deposit lists p65 translocation robust z-score -1.6; nuclear/cytoplasmic p65 ratio, rep 1 = 1.21; nuclear/cytoplasmic p65 ratio, rep 2 = 1.03; low cell count flag enough cells to score; active.
